Measurements from patent US20230143091A1 (SORRISO PHARMACEUTICALS, published 2023).
No constants are given. Whether binding was seen depends on the method and setting. Some results given as binding are weak or reduced against the parent protein; the word gives no strength.

Chains of the proteins cited; added tags and fusions are not shown. Residues count along the entry.
UniProt P01375, residues 77-233: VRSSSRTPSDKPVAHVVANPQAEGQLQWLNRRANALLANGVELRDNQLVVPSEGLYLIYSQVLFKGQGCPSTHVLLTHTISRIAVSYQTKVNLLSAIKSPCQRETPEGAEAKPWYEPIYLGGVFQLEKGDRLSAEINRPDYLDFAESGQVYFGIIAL

What was measured:
[1] = target: T1, IL-7R (as used in the IL-7/IL-7R neutralisation ELISA) (UniProt P16871); experiment: IL-7/IL-7R neutralisation ELISA; blocked ligand IL-7, bound IL-7 detected with biotinylated anti-hIL-7 and Extravidin-HRP
T1 sequence (looked up): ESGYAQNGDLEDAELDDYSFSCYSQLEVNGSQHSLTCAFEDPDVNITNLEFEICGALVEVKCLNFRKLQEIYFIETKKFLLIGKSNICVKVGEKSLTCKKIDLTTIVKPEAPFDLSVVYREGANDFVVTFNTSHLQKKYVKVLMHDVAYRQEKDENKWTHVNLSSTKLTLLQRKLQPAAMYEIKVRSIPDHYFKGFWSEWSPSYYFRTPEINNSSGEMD

[2] = target: T1, IL-7R (as used in the IL-7/IL-7R neutralisation ELISA); experiment: IL-7/IL-7R ELISA, reference monomer
human TNFα [3] = target: T2, human TNFα (human, UniProt P01375 77-233); experiment: competition ELISA on plate-coated human TNFα; competitor 2 nM biotinylated adalimumab, detected with ExtrAvidin-HRP
T2 construct: also called TNF-alpha; Tumour necrosis factor-alpha
Experimental: ELISA plates were coated with 100 ng/mL human TNFα in 250 μg/mL bovine serum albumin (BSA) in phosphate buffered saline (1×PBS) and blocked with 1% BSA in 1×PBS.

[4] = target: T1, IL-7R (as used in the IL-7/IL-7R neutralisation ELISA); experiment: IL-7/IL-7R ELISA, before trypsin treatment
human TNFα [5] = target: T2, human TNFα; experiment: competition ELISA on coated human TNFα; competitor biotinylated adalimumab; before trypsin

Measured: binding

B1: ID-A62U (VHH)
VHH: DVQLVESGGGLVQAGGSLRLSCESSISTFSSDAMGWFRQAPGKELEFLAAIGWSGAVTHYSDSVKGRFTISRDNAKNTVYLQMNSLRAEDTGRYYCAEDYDTDVWQYWGQGTQVTVSS
notes: Produced in S. cerevisiae; Comprises E1D and R45L mutations relative to ID-A40U
binds: [1] | [2]

B2: FU3K bihead (bispecific antibody)
chain: DVQLVESGGGLVQPGGSLKLSCAASGFDFSSHWMYWVRQAPGKELEWLSEINTNGLITHYGDSVKGRFTVSRNNAANKMYLELTRLEPEDTALYYCARNQHGLNKGQGTQVTVSSGGGGSGGGGSKGGGGSGGGGSEVQLVESGGGLVQAGGSLRLSCESSISTFSSDAMGWFRQAPGKELEFLAAIGWSGAVTHYSDSVKGRFTISRDNAKNTVYLQMNSLRAEDTGRYYCAEDYDTDVWQYWGQGTQVTVSS
notes: Produced in S. cerevisiae; also called pre-digestion FU3K; heterobihead
not listed: [2]
binds: all other assays above
